# At least one compound was matched to its structure with a doubt left.
# Test system: SARS-CoV-2
# Design: species or system K18-hACE2 mice
# Details: mouse, in vivo
smiles,measurement,value
CCC(CC)COC(=O)[C@H](C)N[P@](=O)(OC[C@H]1O[C@@](C#N)(c2ccc3c(N)ncnn23)[C@H](O)[C@@H]1O)Oc1ccccc1 [remdesivir],Lung pathology / inflammatory cell infiltrates,positive effect
same,"Lung viral load (viral RNA, RT-PCR)",not observed

# From US20250332170A1, “VANDETANIB REDUCES INFLAMMATORY CYTOKINES AND AMELIORATES COVID-19” (Collaborations Pharmaceuticals, Inc., priority 2021, published 2025)
